Compound in the assay: Cc1cc(ccc1-c1ccccc1)C(=O)N1CCCN(CC1)C(=O)CCl [compound 10]
The experiment in a line: probe-labelled cysteine peptide fold change vs DMSO (competition) (log2 fold change); higher = less target engagement (more negative = stronger competition). Conditions: THP-1, incubation time: 4 h.

Protein sequences, listed by entry. Tags and fused reporters are not part of them. Lines headed by an entry give the natural chain unless they say otherwise; changes in a name come on top.
UniProt P27448: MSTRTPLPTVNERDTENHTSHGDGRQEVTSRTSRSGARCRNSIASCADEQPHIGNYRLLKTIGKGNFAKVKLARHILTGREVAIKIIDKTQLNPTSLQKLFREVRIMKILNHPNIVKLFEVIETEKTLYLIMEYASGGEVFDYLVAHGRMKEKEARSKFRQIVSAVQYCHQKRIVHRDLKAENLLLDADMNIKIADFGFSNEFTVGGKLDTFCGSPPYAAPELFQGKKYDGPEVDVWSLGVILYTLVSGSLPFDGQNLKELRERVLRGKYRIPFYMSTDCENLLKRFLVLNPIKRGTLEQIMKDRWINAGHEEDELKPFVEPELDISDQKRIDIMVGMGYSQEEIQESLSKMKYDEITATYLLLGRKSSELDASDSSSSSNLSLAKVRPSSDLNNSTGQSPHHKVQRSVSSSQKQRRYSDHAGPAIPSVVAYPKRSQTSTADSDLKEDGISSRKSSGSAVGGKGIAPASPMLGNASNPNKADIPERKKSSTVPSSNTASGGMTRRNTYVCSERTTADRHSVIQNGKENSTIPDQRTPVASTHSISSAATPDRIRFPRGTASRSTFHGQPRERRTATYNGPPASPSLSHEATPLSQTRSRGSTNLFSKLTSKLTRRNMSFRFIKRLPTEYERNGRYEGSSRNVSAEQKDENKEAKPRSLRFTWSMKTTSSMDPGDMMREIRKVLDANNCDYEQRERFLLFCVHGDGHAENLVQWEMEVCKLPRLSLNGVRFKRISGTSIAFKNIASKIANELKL
UniProt P27361, whole entry, looked up: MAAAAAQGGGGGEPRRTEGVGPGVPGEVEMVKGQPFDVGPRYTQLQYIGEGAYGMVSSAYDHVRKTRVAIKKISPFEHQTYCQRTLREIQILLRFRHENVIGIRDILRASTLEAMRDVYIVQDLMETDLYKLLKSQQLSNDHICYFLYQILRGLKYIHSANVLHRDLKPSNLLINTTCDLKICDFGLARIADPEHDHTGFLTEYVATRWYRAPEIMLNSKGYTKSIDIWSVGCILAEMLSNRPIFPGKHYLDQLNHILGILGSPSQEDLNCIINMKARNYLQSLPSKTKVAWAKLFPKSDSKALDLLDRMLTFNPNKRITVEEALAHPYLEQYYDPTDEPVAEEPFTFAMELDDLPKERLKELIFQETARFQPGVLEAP
UniProt Q66K74: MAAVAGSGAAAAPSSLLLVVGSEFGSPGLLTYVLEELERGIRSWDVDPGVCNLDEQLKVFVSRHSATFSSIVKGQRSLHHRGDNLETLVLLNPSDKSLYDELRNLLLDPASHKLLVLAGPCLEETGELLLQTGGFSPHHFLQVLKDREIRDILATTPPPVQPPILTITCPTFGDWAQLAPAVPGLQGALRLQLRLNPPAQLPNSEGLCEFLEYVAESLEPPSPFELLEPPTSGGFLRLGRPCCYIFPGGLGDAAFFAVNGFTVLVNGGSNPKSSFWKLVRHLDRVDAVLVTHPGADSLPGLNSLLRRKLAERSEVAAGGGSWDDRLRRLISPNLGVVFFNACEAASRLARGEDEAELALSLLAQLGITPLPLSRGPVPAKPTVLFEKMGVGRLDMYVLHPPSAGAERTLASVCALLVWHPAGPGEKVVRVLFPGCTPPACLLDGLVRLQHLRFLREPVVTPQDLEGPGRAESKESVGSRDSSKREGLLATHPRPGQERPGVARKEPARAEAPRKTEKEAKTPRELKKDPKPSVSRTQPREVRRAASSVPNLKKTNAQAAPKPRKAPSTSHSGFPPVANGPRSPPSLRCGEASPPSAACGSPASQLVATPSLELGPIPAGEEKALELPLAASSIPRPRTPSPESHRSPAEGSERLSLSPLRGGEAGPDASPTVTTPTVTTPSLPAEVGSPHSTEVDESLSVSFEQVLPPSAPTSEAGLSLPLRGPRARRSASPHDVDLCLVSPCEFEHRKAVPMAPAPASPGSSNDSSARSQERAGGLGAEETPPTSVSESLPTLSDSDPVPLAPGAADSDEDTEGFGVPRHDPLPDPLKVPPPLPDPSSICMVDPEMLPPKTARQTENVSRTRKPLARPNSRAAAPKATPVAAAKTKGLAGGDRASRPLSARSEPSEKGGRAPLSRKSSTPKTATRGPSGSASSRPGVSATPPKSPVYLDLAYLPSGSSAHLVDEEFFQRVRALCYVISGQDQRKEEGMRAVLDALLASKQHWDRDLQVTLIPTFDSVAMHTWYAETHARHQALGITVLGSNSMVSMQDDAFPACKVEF
UniProt Q9Y6R4: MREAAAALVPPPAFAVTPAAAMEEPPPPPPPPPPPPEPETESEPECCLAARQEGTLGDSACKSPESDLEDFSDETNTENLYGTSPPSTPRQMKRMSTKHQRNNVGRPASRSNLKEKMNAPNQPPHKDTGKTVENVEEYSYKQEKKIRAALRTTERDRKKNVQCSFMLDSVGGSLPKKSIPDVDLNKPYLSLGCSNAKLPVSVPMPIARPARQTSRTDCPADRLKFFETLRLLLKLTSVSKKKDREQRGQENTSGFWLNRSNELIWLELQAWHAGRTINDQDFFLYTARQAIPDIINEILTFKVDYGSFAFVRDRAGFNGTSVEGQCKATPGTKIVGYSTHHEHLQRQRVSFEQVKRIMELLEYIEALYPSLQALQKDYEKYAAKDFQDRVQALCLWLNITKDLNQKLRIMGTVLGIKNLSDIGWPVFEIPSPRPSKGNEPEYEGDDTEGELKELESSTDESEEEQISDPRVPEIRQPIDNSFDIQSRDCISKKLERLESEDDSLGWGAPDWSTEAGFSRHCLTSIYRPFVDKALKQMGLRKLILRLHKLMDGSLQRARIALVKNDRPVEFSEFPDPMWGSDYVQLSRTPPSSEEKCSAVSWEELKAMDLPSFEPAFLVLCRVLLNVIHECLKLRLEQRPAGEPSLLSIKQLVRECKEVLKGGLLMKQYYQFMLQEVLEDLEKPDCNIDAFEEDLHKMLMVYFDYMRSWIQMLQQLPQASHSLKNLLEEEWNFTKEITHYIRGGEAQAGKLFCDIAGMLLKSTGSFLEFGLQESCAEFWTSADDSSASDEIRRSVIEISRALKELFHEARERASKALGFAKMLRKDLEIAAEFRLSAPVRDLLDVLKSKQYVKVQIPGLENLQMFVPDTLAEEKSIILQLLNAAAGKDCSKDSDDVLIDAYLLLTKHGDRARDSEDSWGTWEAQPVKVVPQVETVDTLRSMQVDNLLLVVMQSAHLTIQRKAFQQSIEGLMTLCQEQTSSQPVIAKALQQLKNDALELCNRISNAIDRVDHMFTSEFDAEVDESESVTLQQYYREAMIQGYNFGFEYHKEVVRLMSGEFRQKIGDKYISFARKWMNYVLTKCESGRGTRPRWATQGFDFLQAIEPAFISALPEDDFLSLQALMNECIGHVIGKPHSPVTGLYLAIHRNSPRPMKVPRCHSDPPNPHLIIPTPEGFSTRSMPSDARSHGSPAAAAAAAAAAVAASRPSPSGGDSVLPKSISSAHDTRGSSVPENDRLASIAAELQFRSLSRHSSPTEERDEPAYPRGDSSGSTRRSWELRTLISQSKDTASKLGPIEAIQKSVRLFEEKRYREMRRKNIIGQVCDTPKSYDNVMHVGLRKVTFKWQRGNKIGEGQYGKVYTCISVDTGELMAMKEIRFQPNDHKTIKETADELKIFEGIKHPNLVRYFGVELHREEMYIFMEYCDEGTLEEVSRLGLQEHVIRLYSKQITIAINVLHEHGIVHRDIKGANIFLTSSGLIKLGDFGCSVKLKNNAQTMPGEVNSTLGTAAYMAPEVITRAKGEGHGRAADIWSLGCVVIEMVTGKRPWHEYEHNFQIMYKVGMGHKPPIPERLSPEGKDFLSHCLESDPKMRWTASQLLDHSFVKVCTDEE
UniProt P52564: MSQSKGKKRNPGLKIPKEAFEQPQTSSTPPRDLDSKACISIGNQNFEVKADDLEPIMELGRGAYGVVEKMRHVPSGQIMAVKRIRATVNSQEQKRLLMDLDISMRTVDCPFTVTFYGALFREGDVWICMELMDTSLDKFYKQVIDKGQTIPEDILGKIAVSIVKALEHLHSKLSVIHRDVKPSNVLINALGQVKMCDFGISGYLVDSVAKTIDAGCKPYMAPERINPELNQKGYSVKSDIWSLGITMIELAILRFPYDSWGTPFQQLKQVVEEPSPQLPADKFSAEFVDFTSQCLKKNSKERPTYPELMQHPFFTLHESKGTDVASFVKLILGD
UniProt Q99683: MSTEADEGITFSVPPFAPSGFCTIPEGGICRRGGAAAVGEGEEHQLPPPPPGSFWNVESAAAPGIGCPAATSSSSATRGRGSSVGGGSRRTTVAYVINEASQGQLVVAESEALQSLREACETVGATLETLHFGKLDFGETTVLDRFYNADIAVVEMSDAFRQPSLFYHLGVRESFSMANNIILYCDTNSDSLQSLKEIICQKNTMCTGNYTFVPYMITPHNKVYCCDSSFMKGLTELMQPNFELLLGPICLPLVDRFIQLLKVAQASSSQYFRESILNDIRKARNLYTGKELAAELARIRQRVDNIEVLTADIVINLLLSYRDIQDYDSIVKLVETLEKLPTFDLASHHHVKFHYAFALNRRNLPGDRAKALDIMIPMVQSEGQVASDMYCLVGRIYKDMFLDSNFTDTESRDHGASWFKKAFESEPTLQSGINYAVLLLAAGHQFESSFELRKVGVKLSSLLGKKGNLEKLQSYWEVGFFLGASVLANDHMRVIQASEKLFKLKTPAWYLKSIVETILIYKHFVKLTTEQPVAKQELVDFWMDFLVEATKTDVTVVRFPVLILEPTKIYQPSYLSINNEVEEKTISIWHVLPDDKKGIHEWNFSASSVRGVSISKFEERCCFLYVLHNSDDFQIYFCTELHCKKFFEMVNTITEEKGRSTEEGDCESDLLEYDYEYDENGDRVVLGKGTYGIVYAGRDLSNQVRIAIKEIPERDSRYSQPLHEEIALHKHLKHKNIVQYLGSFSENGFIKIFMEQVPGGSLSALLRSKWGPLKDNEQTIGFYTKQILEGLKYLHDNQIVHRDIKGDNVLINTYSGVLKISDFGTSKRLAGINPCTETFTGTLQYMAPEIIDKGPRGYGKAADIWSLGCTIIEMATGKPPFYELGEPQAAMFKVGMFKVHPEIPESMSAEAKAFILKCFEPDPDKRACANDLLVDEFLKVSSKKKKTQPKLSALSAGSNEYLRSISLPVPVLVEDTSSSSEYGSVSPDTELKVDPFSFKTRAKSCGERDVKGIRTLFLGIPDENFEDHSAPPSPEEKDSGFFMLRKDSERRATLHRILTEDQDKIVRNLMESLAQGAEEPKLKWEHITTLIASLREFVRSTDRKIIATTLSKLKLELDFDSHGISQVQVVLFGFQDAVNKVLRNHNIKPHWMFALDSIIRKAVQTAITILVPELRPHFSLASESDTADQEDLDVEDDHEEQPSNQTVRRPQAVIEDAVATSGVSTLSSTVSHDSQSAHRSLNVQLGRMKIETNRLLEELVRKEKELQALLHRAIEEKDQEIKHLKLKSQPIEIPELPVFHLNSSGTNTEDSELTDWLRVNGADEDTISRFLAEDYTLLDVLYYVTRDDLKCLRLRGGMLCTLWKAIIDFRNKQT
UniProt Q5VZF2: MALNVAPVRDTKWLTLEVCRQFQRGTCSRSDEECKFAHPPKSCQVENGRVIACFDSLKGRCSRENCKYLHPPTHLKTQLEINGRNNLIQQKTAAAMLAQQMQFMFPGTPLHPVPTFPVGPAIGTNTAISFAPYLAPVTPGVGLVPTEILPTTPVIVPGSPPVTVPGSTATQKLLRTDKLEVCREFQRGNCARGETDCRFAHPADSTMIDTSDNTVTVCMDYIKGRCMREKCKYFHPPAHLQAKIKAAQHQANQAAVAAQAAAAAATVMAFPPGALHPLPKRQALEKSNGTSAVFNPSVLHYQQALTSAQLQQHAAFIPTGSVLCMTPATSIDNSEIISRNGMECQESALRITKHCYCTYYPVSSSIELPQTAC
UniProt Q9HCC0: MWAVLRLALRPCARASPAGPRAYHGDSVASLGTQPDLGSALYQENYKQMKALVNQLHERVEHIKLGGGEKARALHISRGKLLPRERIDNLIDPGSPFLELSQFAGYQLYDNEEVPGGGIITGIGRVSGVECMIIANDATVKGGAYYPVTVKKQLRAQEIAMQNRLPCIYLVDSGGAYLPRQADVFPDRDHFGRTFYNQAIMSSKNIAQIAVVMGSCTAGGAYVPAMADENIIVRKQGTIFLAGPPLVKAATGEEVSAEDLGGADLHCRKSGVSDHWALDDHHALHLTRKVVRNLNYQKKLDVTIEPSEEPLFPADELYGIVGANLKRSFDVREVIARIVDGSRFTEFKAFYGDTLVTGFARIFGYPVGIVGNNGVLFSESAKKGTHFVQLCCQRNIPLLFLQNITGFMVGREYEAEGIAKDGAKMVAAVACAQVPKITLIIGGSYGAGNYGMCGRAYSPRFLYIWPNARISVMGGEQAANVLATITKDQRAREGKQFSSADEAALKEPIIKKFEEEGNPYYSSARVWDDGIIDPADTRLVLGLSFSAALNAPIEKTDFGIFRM

This is one part of the list.
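Also: competitive profiling in live THP-1 cells: cysteine peptides tagged with an iodoacetamide desthiobiotin (IA-DTB) probe, intensity after compound treatment relative to DMSO-treated cells.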

Turning to “MBD4_O95243_549_IFCVNEWK (UniProt O95243)”, the “probe-labelled cysteine peptide fold change” value (10 µM) stood at 0.00198 and the “probe-labelled cysteine peptide fold change” value (50 µM) is -0.0746.

In the case of “MARCH5_Q9NX47_46_WVHQACLQR (UniProt Q9NX47)”, the “probe-labelled cysteine peptide fold change” value by setting is: (10 µM) -0.0838; (50 µM) -0.181.

With “MACF1_Q9UPN3_4325_DASSCQEQLDEFRK (UniProt Q9UPN3)”, the “probe-labelled cysteine peptide fold change” value is, setting by setting: (10 µM) -0.119; (50 µM) 0.229.

In the case of “MARK3_P27448_213_LDTFCGSPPYAAPELFQGK (UniProt P27448)”, the “probe-labelled cysteine peptide fold change” value by setting is: (10 µM) -0.0946; (50 µM) 0.0843.

On to “MAPK3_P27361_82_ISPFEHQTYCQR (UniProt P27361)”, for which the “probe-labelled cysteine peptide fold change” value was -0.00572 (10 µM) and 0.142 (50 µM).

For “MAP1S_Q66K74_440_VLFPGCTPPACLLDGLVR (UniProt Q66K74)”, the “probe-labelled cysteine peptide fold change” value is -0.12 (10 µM) and 0.127 (50 µM).

As for “MASTL_Q96GX5_614_ESSFEESNIEDPLIVTPDCQEK (UniProt Q96GX5)”, the “probe-labelled cysteine peptide fold change” value was 0.0778 (10 µM) and -0.136 (50 µM).

Consider “MAP2K7_O14733_280_SAGCAAYMAPER (UniProt O14733)”, for which the “probe-labelled cysteine peptide fold change” value (10 µM) is -0.121 and the “probe-labelled cysteine peptide fold change” value (50 µM) was -0.775.

As for “MAP3K4_Q9Y6R4_596_CSAVSWEELK (UniProt Q9Y6R4)”, the “probe-labelled cysteine peptide fold change” value reads like this: (10 µM) 0.229; (50 µM) 0.498.

Take “LYPLAL1_Q5VWZ2_174_SNGVLPELFQCHGTADELVLHSWAEETNSMLK (UniProt Q5VWZ2)”: the “probe-labelled cysteine peptide fold change” value (10 µM) is 0.165 and the “probe-labelled cysteine peptide fold change” value (50 µM) was -0.0729.

For “MAP2K6_P52564_294_FSAEFVDFTSQCLK (UniProt P52564)”, the “probe-labelled cysteine peptide fold change” value is, setting by setting: (10 µM) -0.0327; (50 µM) 0.2.

For “LYAR_Q9NX58_36_NCECLSCIDCGK (UniProt Q9NX58)”, the “probe-labelled cysteine peptide fold change” value (10 µM) came out at 0.105 and the “probe-labelled cysteine peptide fold change” value (50 µM) was found to be 0.0594.

For “MANBA_O00462_176_GECHVNFVR (UniProt O00462)”, the “probe-labelled cysteine peptide fold change” value (10 µM) was -0.13 and the “probe-labelled cysteine peptide fold change” value (50 µM) came to 0.0132.

For “MAPK7_Q13164_194_DLKPSNLLVNENCELK (UniProt Q13164)”, the “probe-labelled cysteine peptide fold change” value by setting is: (10 µM) -0.251; (50 µM) -0.627.

Regarding “MAP1S_Q66K74_342_LISPNLGVVFFNACEAASR (UniProt Q66K74)”, the “probe-labelled cysteine peptide fold change” value (10 µM) was found to be 0.00489 and the “probe-labelled cysteine peptide fold change” value (50 µM) was -0.0757.

In the case of “MARS_P56192_309_LRQWNTLYLCGTDEYGTATETK (UniProt P56192)”, the “probe-labelled cysteine peptide fold change” value by setting is: (10 µM) -0.0574; (50 µM) -0.17.

With “MARK3_P27448_46_NSIASCADEQPHIGNYR (UniProt P27448)”, the “probe-labelled cysteine peptide fold change” value (10 µM) was -0.297 and the “probe-labelled cysteine peptide fold change” value (50 µM) is -0.161.

As for “MAP3K5_Q99683_391_ALDIMIPMVQSEGQVASDMYCLVGR (UniProt Q99683)”, the “probe-labelled cysteine peptide fold change” value runs as follows: (10 µM) 0.187; (50 µM) 0.0264.

Turning to “MBD1_Q9UIS9_525_ADTQDEWTPGTAVLTSPVLVPGCPSK (UniProt Q9UIS9)”, the “probe-labelled cysteine peptide fold change” value is -0.0342 (10 µM) and -0.125 (50 µM).

Consider “LY75_O60449_150_KGGSEESLCDQPYHEIYTR (UniProt O60449)”, for which the “probe-labelled cysteine peptide fold change” value runs as follows: (10 µM) -0.0718; (50 µM) -0.174.

Consider “MAP1S_Q66K74_738+743_SASPHDVDLCLVSPCEFEHR (UniProt Q66K74)”, for which the “probe-labelled cysteine peptide fold change” value (10 µM) is -0.547 and the “probe-labelled cysteine peptide fold change” value (50 µM) is -0.135.

Take “MBNL2_Q5VZF2_19_WLTLEVCR (UniProt Q5VZF2)”: the “probe-labelled cysteine peptide fold change” value was 0.141 (10 µM) and -0.0629 (50 µM).

Take “MCCC2_Q9HCC0_167_LPCIYLVDSGGAYLPR (UniProt Q9HCC0)”: the “probe-labelled cysteine peptide fold change” value stood at 0.399 (10 µM) and 0.261 (50 µM).
